These are yes or no findings as the source states them, for the method shown. In cells and extracts the contact can be indirect. Some results given as binding are weak or reduced against the parent protein; the word gives no strength.
Biological target: Flag-Wild type BMAL1 (human (cDNA from MRC5 mRNA)) (UniProt O00327)
Assay: co-IP; lysates of HEK293T cells overexpressing Flag-BMAL1 (WT or S183A), treated with Zeocin or DMSO/control; precipitated with anti-Flag beads; immunoblot

The chains behind the UniProt entries cited, without tags or fusion partners.
UniProt O00327: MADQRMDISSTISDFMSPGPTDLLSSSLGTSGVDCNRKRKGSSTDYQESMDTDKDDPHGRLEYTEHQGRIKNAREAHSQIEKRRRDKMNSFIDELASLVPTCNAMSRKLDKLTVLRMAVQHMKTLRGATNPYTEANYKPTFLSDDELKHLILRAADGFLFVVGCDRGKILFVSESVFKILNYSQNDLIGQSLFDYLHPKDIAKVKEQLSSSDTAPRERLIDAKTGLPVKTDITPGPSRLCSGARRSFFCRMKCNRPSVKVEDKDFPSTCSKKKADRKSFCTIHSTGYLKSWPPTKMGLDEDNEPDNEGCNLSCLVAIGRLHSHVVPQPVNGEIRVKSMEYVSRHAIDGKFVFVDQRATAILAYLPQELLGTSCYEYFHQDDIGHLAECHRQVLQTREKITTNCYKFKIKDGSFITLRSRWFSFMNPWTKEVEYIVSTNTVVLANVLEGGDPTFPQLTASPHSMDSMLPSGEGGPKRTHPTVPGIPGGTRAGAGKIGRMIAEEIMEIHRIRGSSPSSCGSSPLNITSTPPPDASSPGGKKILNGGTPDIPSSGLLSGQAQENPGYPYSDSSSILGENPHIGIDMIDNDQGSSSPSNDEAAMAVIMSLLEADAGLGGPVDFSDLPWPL

- binding: binds
B1: CLOCK (protein, UniProt O15516 1-846)
chain: MLFTVSCSKMSSIVDRDDSSIFDGLVEEDDKDKAKRVSRNKSEKKRRDQFNVLIKELGSMLPGNARKMDKSTVLQKSIDFLRKHKEITAQSDASEIRQDWKPTFLSNEEFTQLMLEALDGFFLAIMTDGSIIYVSESVTSLLEHLPSDLVDQSIFNFIPEGEHSEVYKILSTHLLESDSLTPEYLKSKNQLEFCCHMLRGTIDPKEPSTYEYVKFIGNFKSLNSVSSSAHNGFEGTIQRTHRPSYEDRVCFVATVRLATPQFIKEMCTVEEPNEEFTSRHSLEWKFLFLDHRAPPIIGYLPFEVLGTSGYDYYHVDDLENLAKCHEHLMQYGKGKSCYYRFLTKGQQWIWLQTHYYITYHQWNSRPEFIVCTHTVVSYAEVRAERRRELGIEESLPETAADKSQDSGSDNRINTVSLKEALERFDHSPTPSASSRSSRKSSHTAVSDPSSTPTKIPTDTSTPPRQHLPAHEKMVQRRSSFSSQSINSQSVGSSLTQPVMSQATNLPIPQGMSQFQFSAQLGAMQHLKDQLEQRTRMIEANIHRQQEELRKIQEQLQMVHGQGLQMFLQQSNPGLNFGSVQLSSGNSSNIQQLAPINMQGQVVPTNQIQSGMNTGHIGTTQHMIQQQTLQSTSTQSQQNVLSGHSQQTSLPSQTQSTLTAPLYNTMVISQPAAGSMVQIPSSMPQNSTQSAAVTTFTQDRQIRFSQGQQLVTKLVTAPVACGAVMVPSTMLMGQVVTAYPTFATQQQQSQTLSVTQQQQQQSSQEQQLTSVQQPSQAQLTQPPQQFLQTSRLLHGNPSTQLILSAAFPLQQSTFPQSHHQQHQSQQQQQLSRHRTDSLPDPSKVQPQ

From article PMC10038804
